Reference: article PMC5593696
No constants are given. Whether binding was seen depends on the method and setting. Binding seen in cells or lysates may run through a third protein. Binding can be weak; no strength is given.

Biological target: 14-3-3 protein (human (endogenous in T-47D and MFM-223))
Experiment: co-IP; IP of endogenous 14-3-3 with rabbit polyclonal 14-3-3 (pan) antibody from T-47D and MFM-223 lysates; non-denaturing lysis buffer (20 mM Tris HCl pH 8, 137 nM NaCl, 10% glycerol, 1% NP-40, 2 mM EDTA), overnight at 4°C, Protein A-Sepharose beads; immunoblot for 14-3-3, C1orf64 and AR; control non-specific rabbit IgG; three replicates

B1: C1orf64 (protein, UniProt Q8NEQ6 1-169)
chain: MAPSEDPRDWRANLKGTIRETGLETSSGGKLAGHQKTVPTAHLTFVIDCTHGKQLSLAATASPPQAPSPNRGLVTPPMKTYIVFCGENWPHLTRVTPMGGGCLAQARATLPLCRGSVASASFPVSPLCPQEVPEAKGKPVKAAPVRSSTWGTVKDSLKALSSCVCGQAD
For B1, the binding was “binds”.
